# Earlier results in patent publication US20090291923A1, “TRIOXANE DIMERS HAVING HIGH ANTICANCER AND LONG-LASTING ANTIMALARIAL ACTIVITIES” (priority 2005, published 2009).
# Where two headings read alike, the source gives them in different places. For at least one compound, name, drawing or mass did not settle the structure.
# Tested on: human cervical cancer cell line HeLa
# Details: cited from earlier work
structure (smiles),measurement,setting,value
"C[C@H]1[C@@H](O)O[C@@H]2O[C@@]3(C)CC[C@H]4[C@H](C)CC[C@@H]1[C@@]24OO3 [DHA, dihydroartemisinin]",IC50,"Disbrow et al. 2005, read-out: IC50, growth inhibitory activity toward HeLa",5 to 10 µM
same,IC50,"read-out: IC50, anticancer activity against human HeLa cervical cancer cells in vitro",5 to 10 µM
